Test results as given in patent publication US10487071B2, “Bis-triazole compounds with anti-biofilm and anti-corrosion properties” (Université de Toulon, priority 2015, dated 2019).
Some results were stated once for a whole list of compounds, not compound by compound.

System: marine bacterial strains (TC14, TC8, 4M6, TC5 and TC11)
Experiment: Toxicity test, summary over the strains
Format: cell-based
Conditions: over the strains tested
Description: In examples 64 and 65, the following marine bacterial strains are used.

SMILES | selectivity index
CN(C)CCOc1ccc(CCn2cc(-c3ccc(-c4cn(CCc5ccc(OCCN(C)C)c(Br)c5)nn4)cc3)nn2)cc1Br [AS162, 2-(4-(2-(4-(4-(1-(4-(2-(dimethylamino)ethoxy)-3-bromophenethyl)-1H-1,2,3-triazol-4-yl)phenyl)-1H-1,2,3-triazol-1-yl)ethyl)-2-bromophenoxy)-N,N-dimethylethanamine] | higher than 10
CN(C)CCCOc1ccc(CCn2cc(-c3ccc(-c4cn(CCc5ccc(OCCCN(C)C)c(Br)c5)nn4)cc3)nn2)cc1Br [AS172, 3-(4-(2-(4-(4-(1-(4-(3-(dimethylamino)propoxy)-3-bromophenethyl)-1H-1,2,3-triazol-4-yl)phenyl)-1H-1,2,3-triazol-1-yl)ethyl)-2-bromophenoxy)-N,N-dimethylpropan-1-amine] | higher than 10
